Binding data for one molecule are collected here from patent US20210324417A1 (RESEARCH INSTITUTE AT NATIONWIDE CHILDREN S HOSPITAL, published 2021).

The target in this assay is neuropilin-1 (NRP1) (mouse (endogenous protein of the mouse cell lines NSC-34 and MN1; species of NRP1 itself not stated)) (UniProt P97333). In words: co-immunoprecipitation with anti-NRP1 antibody from NSC-34 lysates, anti-V5 Western blot.

Results are given in words; binding and its absence hold for the method and conditions named. In cells and extracts the contact can be indirect. Some entries that bind do so weakly or less than the wild type. Tags and fused reporters may be left off the sequences shown.

B1: V5-tagged P234KY human GARS (enzyme, UniProt P41250-2 1-685, looked up, not shown: small tags and cut ends)
chain: MDGAGAEEVLAPLRLAVRQQGDLVRKLKEDKAPQVDVDKAVAELKARKRVLEAKELALQPKDDIVDRAKMEDTLKRRFFYDQAFAIYGGVSGLYDFGPVGCALKNNIIQTWRQHFIQEEQILEIDCTMLTPEPVLKTSGHVDKFADFMVKDVKNGECFRADHLLKAHLQKLMSDKKCSVEKKSEMESVLAQLDNYGQQELADLFVNYNVKSPITGNDLSPPVSFNLMFKTFIGKYGGNMPGYLRPETAQGIFLNFKRLLEFNQGKLPFAAAQIGNSFRNEISPRSGLIRVREFTMAEIEHFVDPSEKDHPKFQNVADLHLYLYSAKAQVSGQSARKMRLGDAVEQGVINNTVLGYFIGRIYLYLTKVGISPDKLRFRQHMENEMAHYACDCWDAESKTSYGWIEIVGCADRSCYDLSCHARATKVPLVAEKPLKEPKTVNVVQFEPSKGAIGKAYKKDAKLVMEYLAICDECYITEMEMLLNEKGEFTIETEGKTFQLTKDMINVKRFQKTLYVEEVVPNVIEPSFGLGRIMYTVFEHTFHVREGDEQRTFFSFPAVVAPFKCSVLPLSQNQEFMPFVKELSEALTRHGVSHKVDDSSGSIGRRYARTDEIGVAFGVTIDFDTVNKTPHTATLRDRDSMRQIRAEISELPSIVQDLANGNITWADVEARYPLFEGQETGKKETIEE
On to B1, for which the binding result is listed as “binds”.
